This passage reports binding results from patent US20220213196A1.

No constants are given. Whether binding was seen depends on the method and setting. Some entries that bind do so weakly or less than the wild type.

In the assay the target is HLA-A*01:01_… (HLA-PEPTIDE target G10), recombinant soluble complex (human) (UniProt P04439). As to the kind of experiment: tetramer sorting and re-sorting of naive CD8+ T cells, single-cell TCR sequencing.

B1: TCR ID #1 (clonotype specific for A*01:01_…) (TCR, V domains shown)
V domain 1: GQQVMQIPQYQHVQEGEDFTTYCNSSTTLSNIQWYKQRPGGHPVFLIQLVKSGEVKKQKRLTFQFGEAKKNSSLHITATQTTDVGTYFCAGPGNTGKLIFGQGTTLQVK
V domain 2: DGGITQSPKYLFRKEGQNVTLSCEQNLNHDAMYWYRQDPGQGLRLIYYSQIVNDFQKGDIAEGYSVSREKKESFPLTVTSAQKNPTAFYLCASSNAGDQPQHFGDGTRLSIL
For B1, the binding result was “binds”.
